Assay results taken from paper PMC8831215.
These are yes or no findings as the source states them, for the method shown. In cells and extracts the contact can be indirect. Some entries that bind do so weakly or less than the wild type.

Sequences of proteins named here, by UniProt entry; tags and fusion partners are left off. A change or cut given only in a name is not applied to a line headed by its entry.
UniProt Q63HN8: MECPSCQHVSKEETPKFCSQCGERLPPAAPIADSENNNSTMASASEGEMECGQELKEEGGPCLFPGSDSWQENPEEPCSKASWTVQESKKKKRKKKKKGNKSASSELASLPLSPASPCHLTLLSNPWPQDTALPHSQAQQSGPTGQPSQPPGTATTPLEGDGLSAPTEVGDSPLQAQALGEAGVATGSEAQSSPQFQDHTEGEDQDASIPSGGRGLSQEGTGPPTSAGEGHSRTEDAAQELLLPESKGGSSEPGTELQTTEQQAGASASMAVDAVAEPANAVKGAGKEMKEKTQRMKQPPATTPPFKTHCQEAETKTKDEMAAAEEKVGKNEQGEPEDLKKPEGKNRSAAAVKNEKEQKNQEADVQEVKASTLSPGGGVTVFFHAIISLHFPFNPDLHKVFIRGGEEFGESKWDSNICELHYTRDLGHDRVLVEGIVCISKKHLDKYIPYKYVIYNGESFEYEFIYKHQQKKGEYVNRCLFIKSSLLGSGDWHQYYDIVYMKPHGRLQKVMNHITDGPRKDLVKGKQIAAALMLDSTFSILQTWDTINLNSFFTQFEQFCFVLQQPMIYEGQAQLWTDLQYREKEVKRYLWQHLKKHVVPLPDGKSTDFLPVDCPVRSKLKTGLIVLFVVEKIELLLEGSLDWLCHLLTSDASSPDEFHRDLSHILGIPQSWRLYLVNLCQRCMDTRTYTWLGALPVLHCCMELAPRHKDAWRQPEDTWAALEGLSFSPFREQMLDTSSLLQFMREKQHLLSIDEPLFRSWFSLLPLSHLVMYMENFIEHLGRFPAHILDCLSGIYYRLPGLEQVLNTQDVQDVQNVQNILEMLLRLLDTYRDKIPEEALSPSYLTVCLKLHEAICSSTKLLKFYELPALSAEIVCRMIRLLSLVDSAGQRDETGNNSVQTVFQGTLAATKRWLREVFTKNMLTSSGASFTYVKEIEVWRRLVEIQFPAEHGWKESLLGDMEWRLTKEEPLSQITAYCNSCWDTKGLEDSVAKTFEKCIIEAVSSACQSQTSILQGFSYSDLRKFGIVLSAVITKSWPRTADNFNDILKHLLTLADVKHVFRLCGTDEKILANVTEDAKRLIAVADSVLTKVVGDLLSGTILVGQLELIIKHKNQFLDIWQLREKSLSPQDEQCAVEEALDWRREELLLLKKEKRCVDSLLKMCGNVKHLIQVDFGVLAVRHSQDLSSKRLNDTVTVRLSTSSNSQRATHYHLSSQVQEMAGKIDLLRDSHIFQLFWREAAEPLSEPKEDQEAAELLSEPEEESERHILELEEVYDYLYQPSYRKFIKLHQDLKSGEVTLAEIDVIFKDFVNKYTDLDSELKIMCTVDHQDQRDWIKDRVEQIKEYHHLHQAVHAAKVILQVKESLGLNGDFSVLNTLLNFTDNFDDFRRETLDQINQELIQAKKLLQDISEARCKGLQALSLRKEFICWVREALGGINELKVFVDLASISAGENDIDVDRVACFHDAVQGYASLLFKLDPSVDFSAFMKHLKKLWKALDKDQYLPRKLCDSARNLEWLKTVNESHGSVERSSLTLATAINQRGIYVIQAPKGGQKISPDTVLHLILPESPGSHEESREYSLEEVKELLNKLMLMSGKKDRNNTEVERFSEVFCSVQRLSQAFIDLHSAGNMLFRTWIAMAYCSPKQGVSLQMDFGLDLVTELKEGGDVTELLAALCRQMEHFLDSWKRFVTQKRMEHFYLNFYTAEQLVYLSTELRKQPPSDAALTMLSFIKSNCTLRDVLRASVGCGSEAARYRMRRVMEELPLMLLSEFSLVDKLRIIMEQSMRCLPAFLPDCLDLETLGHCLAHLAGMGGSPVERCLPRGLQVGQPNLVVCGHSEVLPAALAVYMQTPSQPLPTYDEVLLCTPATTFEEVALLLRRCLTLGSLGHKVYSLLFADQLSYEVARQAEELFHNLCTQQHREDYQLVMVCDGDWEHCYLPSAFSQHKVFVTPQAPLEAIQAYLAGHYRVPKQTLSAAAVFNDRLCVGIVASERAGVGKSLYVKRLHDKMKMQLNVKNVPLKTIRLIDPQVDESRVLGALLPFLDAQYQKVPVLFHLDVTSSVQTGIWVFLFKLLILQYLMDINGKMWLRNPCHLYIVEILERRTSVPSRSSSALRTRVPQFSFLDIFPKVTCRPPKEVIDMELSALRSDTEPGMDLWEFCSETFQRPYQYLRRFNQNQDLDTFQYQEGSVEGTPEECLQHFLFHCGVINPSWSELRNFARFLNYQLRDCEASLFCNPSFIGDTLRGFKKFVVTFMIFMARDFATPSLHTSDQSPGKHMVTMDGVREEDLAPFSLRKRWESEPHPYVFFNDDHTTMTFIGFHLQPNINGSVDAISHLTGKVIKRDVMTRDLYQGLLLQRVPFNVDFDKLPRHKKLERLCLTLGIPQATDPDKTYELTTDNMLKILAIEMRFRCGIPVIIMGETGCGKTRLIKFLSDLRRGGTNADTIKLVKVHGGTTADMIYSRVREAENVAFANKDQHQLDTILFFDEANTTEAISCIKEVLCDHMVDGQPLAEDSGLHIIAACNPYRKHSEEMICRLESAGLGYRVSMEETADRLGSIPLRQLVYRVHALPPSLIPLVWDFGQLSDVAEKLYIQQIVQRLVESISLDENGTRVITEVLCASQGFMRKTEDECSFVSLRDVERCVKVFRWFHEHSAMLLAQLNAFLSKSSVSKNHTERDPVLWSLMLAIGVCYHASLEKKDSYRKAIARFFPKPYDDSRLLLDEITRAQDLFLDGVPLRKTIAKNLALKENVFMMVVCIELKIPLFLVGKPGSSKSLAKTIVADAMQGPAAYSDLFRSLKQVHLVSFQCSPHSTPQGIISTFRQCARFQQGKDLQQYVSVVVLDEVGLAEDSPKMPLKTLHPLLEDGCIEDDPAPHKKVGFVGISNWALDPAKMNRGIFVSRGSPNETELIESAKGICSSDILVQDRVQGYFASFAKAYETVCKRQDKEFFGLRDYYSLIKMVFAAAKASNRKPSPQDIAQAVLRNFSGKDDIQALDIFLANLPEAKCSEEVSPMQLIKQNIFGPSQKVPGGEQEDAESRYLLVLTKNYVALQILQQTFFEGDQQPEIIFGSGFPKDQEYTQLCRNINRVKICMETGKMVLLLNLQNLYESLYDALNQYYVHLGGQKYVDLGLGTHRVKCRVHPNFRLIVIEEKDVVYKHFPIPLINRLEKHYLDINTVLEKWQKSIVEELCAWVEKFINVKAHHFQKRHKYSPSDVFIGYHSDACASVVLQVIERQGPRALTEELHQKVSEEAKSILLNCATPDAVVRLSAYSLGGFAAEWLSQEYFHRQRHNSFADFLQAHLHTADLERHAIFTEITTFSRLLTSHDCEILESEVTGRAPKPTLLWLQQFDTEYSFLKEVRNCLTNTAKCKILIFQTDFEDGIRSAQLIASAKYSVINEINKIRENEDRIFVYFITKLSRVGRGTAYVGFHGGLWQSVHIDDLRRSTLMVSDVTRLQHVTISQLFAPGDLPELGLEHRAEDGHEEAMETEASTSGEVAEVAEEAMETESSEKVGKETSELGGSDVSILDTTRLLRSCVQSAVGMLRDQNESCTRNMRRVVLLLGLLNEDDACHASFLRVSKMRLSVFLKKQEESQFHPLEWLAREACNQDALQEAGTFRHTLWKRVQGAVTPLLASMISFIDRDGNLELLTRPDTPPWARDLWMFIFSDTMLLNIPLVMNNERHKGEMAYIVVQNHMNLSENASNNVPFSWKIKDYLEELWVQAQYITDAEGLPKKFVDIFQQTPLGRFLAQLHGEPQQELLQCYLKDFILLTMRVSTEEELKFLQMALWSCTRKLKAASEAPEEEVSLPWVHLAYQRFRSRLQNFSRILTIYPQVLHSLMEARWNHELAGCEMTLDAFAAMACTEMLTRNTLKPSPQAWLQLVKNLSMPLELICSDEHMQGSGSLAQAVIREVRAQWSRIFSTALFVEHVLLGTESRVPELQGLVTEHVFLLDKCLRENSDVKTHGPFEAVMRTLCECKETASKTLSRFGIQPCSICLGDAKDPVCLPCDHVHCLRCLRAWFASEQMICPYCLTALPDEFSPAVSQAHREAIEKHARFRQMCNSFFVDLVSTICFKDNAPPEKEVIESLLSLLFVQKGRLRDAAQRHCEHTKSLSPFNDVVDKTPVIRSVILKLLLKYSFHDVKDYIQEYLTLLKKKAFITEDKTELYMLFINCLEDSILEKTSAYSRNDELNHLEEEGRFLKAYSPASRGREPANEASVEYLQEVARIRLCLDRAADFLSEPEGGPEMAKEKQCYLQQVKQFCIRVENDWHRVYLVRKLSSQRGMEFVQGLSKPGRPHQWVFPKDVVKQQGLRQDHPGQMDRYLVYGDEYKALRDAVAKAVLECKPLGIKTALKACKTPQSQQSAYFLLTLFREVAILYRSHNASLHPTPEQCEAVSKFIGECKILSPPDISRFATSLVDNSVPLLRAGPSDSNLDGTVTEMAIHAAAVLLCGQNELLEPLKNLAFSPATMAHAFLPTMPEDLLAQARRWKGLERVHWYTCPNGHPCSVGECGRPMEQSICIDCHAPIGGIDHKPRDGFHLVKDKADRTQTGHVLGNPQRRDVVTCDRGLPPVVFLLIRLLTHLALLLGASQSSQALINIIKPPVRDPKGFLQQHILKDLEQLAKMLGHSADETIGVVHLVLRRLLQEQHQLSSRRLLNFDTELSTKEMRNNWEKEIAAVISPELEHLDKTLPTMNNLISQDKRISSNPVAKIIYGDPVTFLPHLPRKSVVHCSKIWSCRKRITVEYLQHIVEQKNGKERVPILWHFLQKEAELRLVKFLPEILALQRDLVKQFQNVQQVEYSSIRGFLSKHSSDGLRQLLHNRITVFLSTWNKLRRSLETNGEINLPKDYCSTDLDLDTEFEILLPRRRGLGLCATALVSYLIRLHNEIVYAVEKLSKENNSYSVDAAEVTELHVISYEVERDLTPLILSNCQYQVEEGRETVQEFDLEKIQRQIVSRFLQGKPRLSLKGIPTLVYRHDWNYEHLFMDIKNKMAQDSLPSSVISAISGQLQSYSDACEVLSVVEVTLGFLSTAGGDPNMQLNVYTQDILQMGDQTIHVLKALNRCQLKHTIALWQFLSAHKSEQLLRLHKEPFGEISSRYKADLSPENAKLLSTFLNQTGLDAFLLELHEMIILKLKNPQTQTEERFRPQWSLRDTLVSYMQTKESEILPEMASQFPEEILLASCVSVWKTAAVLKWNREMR

Experiments:
Experiment in all cases: co-IP; 293T cells co-transfected with EGFP-RNF213 WT and 3xFL-RNF213 WT or mutant; lysates subjected to anti-Flag immunoprecipitation, then anti-GFP immunoblotting; 1% NP-40 lysis buffer, 4 h at 4°C
[1] = biological target: 3x-Flag-tagged RNF213 I3999A (RING E3-defective mutant) (human) (UniProt Q63HN8)
[2] = biological target: 3x-Flag-tagged RNF213 R4810K (most prevalent MMD variant) (human) (UniProt Q63HN8)
[3] = biological target: 3x-Flag-tagged RNF213 E2488Q (AAA+ ATPase-inactive mutant) (human) (UniProt Q63HN8)

Measured: binding

EGFP-tagged WT RNF213 (from UniProt Q63HN8 1-5207)
binds: all assays above
